The list shows a part of the results.
Compound: Nc1ccccc1NC(=O)c1ccc(CNC(=O)OCc2cccnc2)cc1 [entinostat]
Assay: log2 fold change, soluble protein after heating vs DMSO (PISA); higher = thermal stabilisation; K562 cells, 10 uM, 30 min; active = over 0.2 and 3.5 SD of the protein, either way, in both replicates (recomputed)
How it was run: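 Quantification of soluble protein used TMTpro 16plex LC-MS/MS, with channel sums equalised. Samples were the supernatant after 21,000xg for 90 min of pooled aliquots from K562 cells (2×10^6 cells/mL) treated with 10 μM compound for 30 min, heated for 3 min over 48°C-58°C, and extracted in PBS with 0.5% NP-40 at 4°C. Values, from duplicates, describe thermal stability against control samples on a log2 fold-change scale.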

Chains of the proteins cited; added tags and fusions are not shown. Lines headed by an entry give the natural chain unless they say otherwise; changes in a name come on top.
UniProt Q14839: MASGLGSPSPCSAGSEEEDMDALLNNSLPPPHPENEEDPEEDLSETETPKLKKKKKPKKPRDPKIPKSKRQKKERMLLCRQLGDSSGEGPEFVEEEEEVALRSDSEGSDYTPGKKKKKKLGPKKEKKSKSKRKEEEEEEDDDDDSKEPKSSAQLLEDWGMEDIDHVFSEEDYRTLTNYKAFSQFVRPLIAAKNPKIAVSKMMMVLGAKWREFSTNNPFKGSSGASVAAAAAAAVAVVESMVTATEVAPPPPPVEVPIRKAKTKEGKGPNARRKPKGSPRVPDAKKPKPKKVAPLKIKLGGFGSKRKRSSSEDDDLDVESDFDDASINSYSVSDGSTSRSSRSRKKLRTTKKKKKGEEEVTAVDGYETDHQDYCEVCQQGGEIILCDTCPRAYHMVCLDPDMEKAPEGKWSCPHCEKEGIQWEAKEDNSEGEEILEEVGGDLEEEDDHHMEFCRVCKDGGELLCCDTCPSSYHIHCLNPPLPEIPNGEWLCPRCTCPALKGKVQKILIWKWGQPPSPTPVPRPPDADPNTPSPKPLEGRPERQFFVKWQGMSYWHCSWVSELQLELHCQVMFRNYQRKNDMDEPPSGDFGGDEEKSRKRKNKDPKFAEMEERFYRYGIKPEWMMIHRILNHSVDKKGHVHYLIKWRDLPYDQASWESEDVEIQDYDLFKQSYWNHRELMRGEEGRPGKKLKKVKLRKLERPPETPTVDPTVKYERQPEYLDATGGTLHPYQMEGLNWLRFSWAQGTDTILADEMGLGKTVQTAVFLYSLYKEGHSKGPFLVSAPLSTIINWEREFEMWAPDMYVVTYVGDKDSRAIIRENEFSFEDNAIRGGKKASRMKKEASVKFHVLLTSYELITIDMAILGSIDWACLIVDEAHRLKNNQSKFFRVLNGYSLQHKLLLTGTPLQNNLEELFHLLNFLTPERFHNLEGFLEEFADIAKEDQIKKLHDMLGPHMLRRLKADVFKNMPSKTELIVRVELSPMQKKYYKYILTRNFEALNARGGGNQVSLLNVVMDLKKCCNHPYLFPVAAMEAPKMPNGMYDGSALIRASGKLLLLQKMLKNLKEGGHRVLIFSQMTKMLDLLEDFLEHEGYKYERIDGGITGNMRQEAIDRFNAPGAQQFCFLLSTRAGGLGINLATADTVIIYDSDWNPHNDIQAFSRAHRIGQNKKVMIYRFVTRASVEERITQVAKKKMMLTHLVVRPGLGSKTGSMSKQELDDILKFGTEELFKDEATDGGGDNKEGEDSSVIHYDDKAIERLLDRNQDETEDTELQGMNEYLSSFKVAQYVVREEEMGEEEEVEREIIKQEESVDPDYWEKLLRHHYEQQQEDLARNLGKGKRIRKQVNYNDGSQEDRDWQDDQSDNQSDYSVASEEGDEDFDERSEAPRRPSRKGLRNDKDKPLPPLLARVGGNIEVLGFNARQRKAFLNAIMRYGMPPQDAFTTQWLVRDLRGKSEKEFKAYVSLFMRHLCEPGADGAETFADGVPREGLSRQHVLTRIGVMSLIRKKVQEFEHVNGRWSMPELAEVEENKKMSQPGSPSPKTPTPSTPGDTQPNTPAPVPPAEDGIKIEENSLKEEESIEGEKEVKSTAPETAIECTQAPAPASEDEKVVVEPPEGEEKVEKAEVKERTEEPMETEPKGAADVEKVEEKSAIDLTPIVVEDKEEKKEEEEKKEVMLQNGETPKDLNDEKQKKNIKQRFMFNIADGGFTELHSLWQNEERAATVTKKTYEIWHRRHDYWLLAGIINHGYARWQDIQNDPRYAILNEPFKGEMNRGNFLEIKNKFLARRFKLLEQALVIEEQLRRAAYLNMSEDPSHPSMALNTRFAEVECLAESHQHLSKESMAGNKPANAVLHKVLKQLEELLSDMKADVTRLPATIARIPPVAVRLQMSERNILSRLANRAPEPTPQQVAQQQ
UniProt Q96JB5: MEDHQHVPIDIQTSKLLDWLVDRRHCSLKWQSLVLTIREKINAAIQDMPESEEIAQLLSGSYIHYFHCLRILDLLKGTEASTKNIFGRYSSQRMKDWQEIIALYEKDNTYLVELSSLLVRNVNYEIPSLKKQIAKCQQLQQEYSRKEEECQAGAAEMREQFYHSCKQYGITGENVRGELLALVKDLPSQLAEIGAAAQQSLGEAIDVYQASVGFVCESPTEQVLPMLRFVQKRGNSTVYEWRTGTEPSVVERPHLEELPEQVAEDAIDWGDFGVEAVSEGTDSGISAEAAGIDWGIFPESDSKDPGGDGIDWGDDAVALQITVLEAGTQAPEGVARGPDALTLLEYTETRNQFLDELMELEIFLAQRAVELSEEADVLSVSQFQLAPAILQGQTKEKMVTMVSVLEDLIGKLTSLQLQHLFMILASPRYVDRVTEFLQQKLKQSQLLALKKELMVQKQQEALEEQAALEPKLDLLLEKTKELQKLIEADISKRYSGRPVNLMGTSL
UniProt P35790, whole entry, looked up: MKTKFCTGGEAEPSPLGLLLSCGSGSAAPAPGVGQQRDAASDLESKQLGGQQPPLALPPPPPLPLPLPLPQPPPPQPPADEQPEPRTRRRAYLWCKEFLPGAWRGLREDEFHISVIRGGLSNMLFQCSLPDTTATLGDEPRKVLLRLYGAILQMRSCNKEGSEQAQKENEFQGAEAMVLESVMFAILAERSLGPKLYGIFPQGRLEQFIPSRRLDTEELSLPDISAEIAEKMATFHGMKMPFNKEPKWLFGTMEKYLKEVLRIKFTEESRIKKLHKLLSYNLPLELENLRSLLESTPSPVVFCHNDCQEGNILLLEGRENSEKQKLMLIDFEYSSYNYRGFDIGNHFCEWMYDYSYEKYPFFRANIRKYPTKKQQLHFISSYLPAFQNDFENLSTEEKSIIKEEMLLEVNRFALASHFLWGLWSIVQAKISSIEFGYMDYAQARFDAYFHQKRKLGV
UniProt Q5VV42: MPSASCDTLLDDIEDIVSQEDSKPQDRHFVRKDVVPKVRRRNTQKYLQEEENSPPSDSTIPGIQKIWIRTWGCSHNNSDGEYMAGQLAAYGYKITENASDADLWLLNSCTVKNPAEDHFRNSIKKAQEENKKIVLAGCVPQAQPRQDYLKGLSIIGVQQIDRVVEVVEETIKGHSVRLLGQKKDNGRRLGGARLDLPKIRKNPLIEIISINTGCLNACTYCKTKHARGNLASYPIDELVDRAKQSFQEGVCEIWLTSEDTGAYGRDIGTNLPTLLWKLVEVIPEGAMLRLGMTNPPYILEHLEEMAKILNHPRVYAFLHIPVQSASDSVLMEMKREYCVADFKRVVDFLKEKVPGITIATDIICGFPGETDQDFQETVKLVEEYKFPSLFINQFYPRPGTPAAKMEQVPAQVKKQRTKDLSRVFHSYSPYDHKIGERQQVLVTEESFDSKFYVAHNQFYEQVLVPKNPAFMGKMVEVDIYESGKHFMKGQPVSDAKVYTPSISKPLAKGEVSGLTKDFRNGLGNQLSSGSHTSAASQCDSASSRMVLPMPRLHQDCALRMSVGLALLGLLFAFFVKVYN
UniProt Q8TD26: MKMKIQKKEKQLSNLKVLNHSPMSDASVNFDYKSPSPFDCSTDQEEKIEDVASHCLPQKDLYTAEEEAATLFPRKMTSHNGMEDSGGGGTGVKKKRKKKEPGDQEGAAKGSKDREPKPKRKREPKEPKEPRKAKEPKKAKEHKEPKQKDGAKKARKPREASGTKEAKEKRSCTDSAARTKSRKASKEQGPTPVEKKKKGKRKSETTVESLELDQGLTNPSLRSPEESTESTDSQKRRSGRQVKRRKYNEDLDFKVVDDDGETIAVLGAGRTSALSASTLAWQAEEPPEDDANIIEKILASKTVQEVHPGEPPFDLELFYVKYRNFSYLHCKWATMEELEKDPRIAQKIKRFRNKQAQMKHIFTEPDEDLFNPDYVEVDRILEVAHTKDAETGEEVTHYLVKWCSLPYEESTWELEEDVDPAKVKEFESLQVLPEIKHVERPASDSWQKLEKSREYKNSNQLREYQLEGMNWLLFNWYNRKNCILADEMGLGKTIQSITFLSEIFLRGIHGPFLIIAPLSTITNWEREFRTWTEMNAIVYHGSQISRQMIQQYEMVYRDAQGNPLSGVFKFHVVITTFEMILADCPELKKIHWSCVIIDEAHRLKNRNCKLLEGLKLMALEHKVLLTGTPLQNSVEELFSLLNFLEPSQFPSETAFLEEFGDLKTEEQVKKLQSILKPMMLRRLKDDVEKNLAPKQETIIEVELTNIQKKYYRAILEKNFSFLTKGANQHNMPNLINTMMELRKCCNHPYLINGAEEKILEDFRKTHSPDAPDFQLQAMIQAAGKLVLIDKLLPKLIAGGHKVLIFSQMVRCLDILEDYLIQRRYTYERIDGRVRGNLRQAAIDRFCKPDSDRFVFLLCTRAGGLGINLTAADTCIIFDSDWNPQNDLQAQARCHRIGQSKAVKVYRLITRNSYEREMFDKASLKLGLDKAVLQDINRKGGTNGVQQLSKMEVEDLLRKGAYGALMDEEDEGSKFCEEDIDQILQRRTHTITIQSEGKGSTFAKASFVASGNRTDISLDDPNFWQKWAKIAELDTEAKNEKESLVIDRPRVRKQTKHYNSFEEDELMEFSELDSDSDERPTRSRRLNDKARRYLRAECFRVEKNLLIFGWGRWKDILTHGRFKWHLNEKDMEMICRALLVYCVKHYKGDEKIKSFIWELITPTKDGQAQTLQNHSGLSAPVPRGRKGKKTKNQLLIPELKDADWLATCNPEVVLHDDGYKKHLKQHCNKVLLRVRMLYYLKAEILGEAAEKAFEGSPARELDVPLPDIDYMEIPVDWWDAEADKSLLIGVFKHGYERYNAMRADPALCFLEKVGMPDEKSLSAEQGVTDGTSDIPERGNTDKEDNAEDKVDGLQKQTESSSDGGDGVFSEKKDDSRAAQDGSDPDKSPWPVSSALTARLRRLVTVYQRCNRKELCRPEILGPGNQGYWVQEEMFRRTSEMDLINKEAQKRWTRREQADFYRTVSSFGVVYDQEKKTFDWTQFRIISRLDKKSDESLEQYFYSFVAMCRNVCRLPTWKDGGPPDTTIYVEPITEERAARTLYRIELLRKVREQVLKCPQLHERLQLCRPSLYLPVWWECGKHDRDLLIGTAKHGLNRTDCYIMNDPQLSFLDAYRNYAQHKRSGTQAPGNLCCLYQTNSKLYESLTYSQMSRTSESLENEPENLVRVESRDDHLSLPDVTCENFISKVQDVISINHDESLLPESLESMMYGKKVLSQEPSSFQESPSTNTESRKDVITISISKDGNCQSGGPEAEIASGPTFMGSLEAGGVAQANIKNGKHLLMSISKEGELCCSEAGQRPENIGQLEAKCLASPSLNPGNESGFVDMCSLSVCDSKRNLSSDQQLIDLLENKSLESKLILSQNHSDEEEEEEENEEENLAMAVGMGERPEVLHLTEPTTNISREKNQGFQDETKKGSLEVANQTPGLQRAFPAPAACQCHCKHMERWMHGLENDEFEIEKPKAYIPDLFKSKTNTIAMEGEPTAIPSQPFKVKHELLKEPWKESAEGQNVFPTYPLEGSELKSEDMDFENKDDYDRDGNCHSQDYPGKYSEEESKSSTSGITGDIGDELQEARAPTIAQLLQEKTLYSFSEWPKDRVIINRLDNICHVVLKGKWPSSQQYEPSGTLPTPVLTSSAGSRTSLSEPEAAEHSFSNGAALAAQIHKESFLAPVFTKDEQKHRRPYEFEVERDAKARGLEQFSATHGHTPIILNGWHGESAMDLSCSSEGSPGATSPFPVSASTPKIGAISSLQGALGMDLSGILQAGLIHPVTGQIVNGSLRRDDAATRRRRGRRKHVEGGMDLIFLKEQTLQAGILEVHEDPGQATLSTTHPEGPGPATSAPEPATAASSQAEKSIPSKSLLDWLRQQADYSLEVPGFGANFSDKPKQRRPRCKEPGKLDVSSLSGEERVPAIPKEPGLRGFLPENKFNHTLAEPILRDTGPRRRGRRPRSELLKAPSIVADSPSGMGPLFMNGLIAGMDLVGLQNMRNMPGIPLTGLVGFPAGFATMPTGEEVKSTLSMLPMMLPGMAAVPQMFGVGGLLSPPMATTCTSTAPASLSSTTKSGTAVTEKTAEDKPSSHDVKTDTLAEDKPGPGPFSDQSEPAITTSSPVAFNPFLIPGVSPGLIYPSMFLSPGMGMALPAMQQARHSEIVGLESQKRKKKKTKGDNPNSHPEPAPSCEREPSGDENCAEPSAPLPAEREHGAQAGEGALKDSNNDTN
UniProt Q8WUX2: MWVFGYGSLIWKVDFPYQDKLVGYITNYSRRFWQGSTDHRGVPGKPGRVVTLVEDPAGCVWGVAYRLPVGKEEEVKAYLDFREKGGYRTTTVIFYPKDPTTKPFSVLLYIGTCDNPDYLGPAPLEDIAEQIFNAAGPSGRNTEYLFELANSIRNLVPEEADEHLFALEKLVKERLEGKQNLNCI
UniProt Q9Y281, whole entry, looked up: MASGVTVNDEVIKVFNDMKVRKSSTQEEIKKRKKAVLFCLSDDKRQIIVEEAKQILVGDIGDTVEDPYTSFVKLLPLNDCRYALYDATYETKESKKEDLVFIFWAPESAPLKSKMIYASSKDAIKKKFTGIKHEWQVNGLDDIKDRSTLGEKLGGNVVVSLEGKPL

| Target | log2 fold change |
| --- | --- |
| CHIC2 (UniProt Q9UKJ5) | inactive: 0.039 |
| CFDP1 (UniProt Q9UEE9) | inactive: -0.014 |
| CHMP2A (UniProt O43633) | inactive: -0.005 |
| CHD4 isoform 2 (UniProt Q14839) | inactive: 0.022 |
| CEP76 (UniProt Q8TAP6) | inactive: -0.031 |
| CDK5RAP3 isoform 4 (UniProt Q96JB5) | inactive: 0.056 |
| CHKA (UniProt P35790) | inactive: -0.023 |
| CDC73 (UniProt Q6P1J9) | inactive: -0.286 |
| CHCHD3 (UniProt Q9NX63) | inactive: -0.009 |
| CDKAL1 (UniProt Q5VV42) | inactive: -0.024 |
| CDK13 (UniProt Q14004) | inactive: 0 |
| CFAP20 (UniProt Q9Y6A4) | inactive: 0.002 |
| CHD6 (UniProt Q8TD26) | inactive: -0.013 |
| CHMP4A isoform 2 (UniProt Q9BY43) | inactive: -0.027 |
| CHMP4B (UniProt Q9H444) | inactive: 0.108 |
| CDK11B (UniProt P21127) | inactive: -0.111 |
| CHMP3 (UniProt Q9Y3E7) | inactive: -0.027 |
| CFAP298 (UniProt P57076) | inactive: 0.088 |
| CETN2 (UniProt P41208) | inactive: -0.033 |
| CHAC2 (UniProt Q8WUX2) | inactive: -0.017 |
| CETN3 (UniProt O15182) | inactive: 0.033 |
| CHD3 isoform 3 (UniProt Q12873) | inactive: 0.036 |
| CFL2 (UniProt Q9Y281) | inactive: -0.014 |

A second format for part of the listing above.
Target	log2 fold change
CHD4 isoform 2 (UniProt Q14839)	inactive: 0.022
CEP76 (UniProt Q8TAP6)	inactive: -0.031

Source: the supplement of paper PMC10849652
